From article PMC12508156, “Non-canonical dihydrolipoyl transacetylase promotes chemotherapy resistance via mitochondrial tetrahydrofolate signaling” (Nature Communications, 2025)
No constants are given. Whether binding was seen depends on the method and setting. In cells and extracts the contact can be indirect. Here binding means that the protein was enriched with, or labelled near, the bait; the list need not be complete.

The chains behind the UniProt entries cited, without tags or fusion partners. Residues count along the entry.
UniProt O00411, residues 42-1230: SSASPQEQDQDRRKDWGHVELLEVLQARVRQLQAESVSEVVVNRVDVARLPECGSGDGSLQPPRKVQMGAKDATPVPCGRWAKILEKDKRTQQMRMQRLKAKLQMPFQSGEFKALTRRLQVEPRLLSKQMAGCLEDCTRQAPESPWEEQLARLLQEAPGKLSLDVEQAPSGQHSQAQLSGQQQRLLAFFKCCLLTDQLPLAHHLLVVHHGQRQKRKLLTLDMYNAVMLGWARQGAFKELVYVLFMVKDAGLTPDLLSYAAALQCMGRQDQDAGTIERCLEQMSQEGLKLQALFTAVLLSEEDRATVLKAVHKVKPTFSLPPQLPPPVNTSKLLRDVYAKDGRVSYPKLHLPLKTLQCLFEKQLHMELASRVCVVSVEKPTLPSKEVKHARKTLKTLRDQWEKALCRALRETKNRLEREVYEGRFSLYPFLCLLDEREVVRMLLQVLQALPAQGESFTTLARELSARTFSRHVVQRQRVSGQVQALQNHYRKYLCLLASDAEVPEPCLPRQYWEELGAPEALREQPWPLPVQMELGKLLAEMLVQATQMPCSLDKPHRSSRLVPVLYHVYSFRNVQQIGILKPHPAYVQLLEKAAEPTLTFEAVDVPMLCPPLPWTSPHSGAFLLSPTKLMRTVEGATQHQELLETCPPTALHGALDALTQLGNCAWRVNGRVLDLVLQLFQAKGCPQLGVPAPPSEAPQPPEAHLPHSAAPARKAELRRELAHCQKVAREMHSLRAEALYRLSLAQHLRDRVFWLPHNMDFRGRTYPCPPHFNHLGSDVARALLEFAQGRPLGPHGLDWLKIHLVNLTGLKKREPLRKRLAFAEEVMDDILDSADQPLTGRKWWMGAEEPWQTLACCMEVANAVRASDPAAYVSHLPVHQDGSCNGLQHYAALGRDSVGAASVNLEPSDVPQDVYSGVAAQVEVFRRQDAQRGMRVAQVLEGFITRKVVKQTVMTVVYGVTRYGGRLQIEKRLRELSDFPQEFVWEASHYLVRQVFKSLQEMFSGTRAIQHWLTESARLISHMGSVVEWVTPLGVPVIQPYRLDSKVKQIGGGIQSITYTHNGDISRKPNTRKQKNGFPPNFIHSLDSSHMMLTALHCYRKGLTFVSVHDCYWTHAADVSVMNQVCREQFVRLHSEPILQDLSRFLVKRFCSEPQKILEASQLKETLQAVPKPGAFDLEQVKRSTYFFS

T1: dihydrolipoyl transacetylase (DLAT) (human (endogenous in A549^cisR)) (UniProt P10515)
T1 sequence: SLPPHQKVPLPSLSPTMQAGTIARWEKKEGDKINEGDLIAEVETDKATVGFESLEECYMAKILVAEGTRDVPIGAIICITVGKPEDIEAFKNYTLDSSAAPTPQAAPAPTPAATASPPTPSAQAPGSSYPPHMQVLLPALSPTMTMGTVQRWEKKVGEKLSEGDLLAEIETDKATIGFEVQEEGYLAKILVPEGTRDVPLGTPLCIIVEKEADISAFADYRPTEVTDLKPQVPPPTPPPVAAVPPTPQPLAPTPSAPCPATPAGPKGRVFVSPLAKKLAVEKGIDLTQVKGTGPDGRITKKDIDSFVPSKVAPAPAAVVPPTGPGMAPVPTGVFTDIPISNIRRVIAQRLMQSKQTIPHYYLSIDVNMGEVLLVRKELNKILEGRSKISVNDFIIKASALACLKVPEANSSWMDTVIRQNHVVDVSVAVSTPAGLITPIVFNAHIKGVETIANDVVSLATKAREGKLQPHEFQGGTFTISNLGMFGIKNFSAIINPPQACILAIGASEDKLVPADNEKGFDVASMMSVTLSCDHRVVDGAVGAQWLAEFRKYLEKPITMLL


Target: T1, dihydrolipoyl transacetylase (DLAT) (human (endogenous in A549^cisR))
Test: affinity purification with mass spectrometry; DLAT co-immunoprecipitation with anti-DLAT antibody and Protein G Sepharose from A549^cisR cells with or without DLAT knockdown; 1% NP-40 lysis buffer, 50 mM Tris-HCl pH 7.4, 150 mM NaCl, 4 °C; LC-MS/MS

Row | binding | Molecule
1 | binds | RNA polymerase mitochondrial (POLRMT) (from UniProt O00411 42-1230) (enzyme)
2 | binds | peroxiredoxin 3 (PRDX3) (enzyme, UniProt P30048 62-256) APAVTQHAPYFKGTAVVNGEFKDLSLDDFKGKYLVLFFYPLDFTFVCPTEIVAFSDKANEFHDVNCEVVAVSVDSHFSHLAWINTPRKNGGLGHMNIALLSDLTKQISRDYGVLLEGSGLALRGLFIIDPNGVIKHLSVNDLPVGRSVEETLRLVKAFQYVETHGEVCPANWTPDSPTIKPSPAASKEYFQKVNQ
3 | binds | methylenetetrahydrofolate dehydrogenase 2 (MTHFD2) (enzyme, UniProt P13995 36-350) EAVVISGRKLAQQIKQEVRQEVEEWVASGNKRPHLSVILVGENPASHSYVLNKTRAAAVVGINSETIMKPASISEEELLNLINKLNNDDNVDGLLVQLPLPEHIDERRICNAVSPDKDVDGFHVINVGRMCLDQYSMLPATPWGVWEIIKRTGIPTLGKNVVVAGRSKNVGMPIAMLLHTDGAHERPGGDATVTISHRYTPKEQLKKHTILADIVISAAGIPNLITADMIKEGAAVIDVGINRVHDPVTAKPKLVGDVDFEGVRQKAGYITPVPGGVGPMTVAMLMKNTIIAAKKVLRLEEREVLKSKELGVATN
